# Results as given in PubChem BioAssay AID720513 (Broad Institute, 2013).
# Among all 2,100 compounds or so, about 480 (23%) were called active. The inconclusive results got no clear call from the source.
# Test: PGC1a acetylation increase, cellular AlphaLISA – cell-based, cherry-picked samples, set 6, dose response (AID 720513)
# Conditions: U2OS PGC1a acetylation AlphaLISA, overnight; at 19.5 µM (top of the series)
row,SMILES,activation (acetylation increase)
1,CCn1c(=O)cc(SCC(=O)N2CCC3(CC2)OCCO3)c2ccccc21,inconclusive: 39.9%
2,C1=NCCc2c1[nH]c1ccccc21,inconclusive: -20.6%
